# Some of these results come from one statement about several compounds together.
# What was measured:
# Type in all cases: in vivo
# [1] = test system: Plutella xylostella (Diamond Back Moth); assay: Plutella xylostella larvae test on artificial diet; details: 18.2 ppm by pipetting on artificial diet; larvae (L2); larval mortality, antifeedant, growth regulation after 5 days
# [2] = test system: Myzus persicae (Green Peach Aphid); assay: Myzus persicae sunflower leaf disc spray test; details: 200 ppm sprayed on sunflower leaf discs; aphid population of mixed ages; mortality after 6 DAT
# Experimental: Sunflower leaf discs were placed on agar in a 24-well microtiter plate and sprayed with test solutions at an application rate of 200 ppm. After drying, the leaf discs were infested with an aphid population of mixed ages. After an incubation period of 6 DAT, samples were checked for mortality. The following compounds gave at least 80% control of Myzus persicae: • I-3, I-26, I-29, […], I-30, I-49, I-52, I-53, I-72, I-75, III-49, V-49, XXIV-46, XXIV-90 and XXIV-94.
# [3] = test system: Spodoptera littoralis (Egyptian Cotton Leafworm); assay: Spodoptera littoralis cotton leaf disc spray test; details: 200 ppm sprayed on cotton leaf discs; 5 L1 larvae; mortality, repellent effect, feeding behaviour, growth regulation 3 days after treatment
# Source text: Spodoptera littoralis (Egyptian Cotton Leafworm)
# Cotton leaf discs were placed on agar in a 24-well microtiter plate and sprayed with test solutions at an application rate of 200 ppm. After drying, the leaf discs were infested with 5 L1 larvae. The samples were checked for mortality, repellent effect, feeding behaviour, and growth regulation 3 days after treatment (DAT). The following compounds gave at least 80% control of Spodoptera littoralis: • I-3, I-26, I-29, I-30, I-49, I-52, I-53, I-75, I-417, I-532, I-578, I-785, I-854, I-877, II-49, III-49, V-49, XII-49, XIV-26, XV-26, XXIV-2, XXIV-46, XXIV-90, XXIV-93, XXIV-94, XXV-26 and XXV-49.
# [4] = test system: Aedes aegypti (Yellow Fever Mosquito); assay: Aedes aegypti larvae test in microtiter plates; details: 2 ppm; larvae (L2) with nutrition mixture; mortality and growth inhibition 2 days later
# Source text: 10-15 Aedes larvae (L2) together with a nutrition mixture are placed in 96-well microtiter plates. Test solutions at an application rate of 2 ppm are pipetted into the wells. 2 days later, insects were checked for mortality and growth inhibition. The following compounds gave at least 80% control of Aedes aegypti • I-3, I-26, I-29, I-30, I-49, I-52, I-53, I-72, I-75, I-76, III-49, III-118, XIV-26, XV-26, XXIV-2, XXIV-46, XXIV-90, XXIV-93, XXIV-94 and XXV-68.
# [5] = test system: Heliothis virescens (Tobacco Budworm); assay: Heliothis virescens egg test on artificial diet; details: 200 ppm by pipetting; eggs (0-24 h old) on artificial diet; egg mortality, larval mortality, growth regulation after 4 days
# Experimental: Eggs (0-24 h old) were placed in 24-well microtiter plate on artificial diet and treated with test solutions at an application rate of 200 ppm by pipetting. After an incubation period of 4 days, samples were checked for egg mortality, larval mortality, and growth regulation. The following compounds gave at least 80% control of Heliothis virescen: • I-3, I-6, I-7, I-26, I-29, I-30, I-47, I-49, I-52, I-53, I-72, I-75, I-417, I-532, I-578, I-785, I-854, I-877, III-49, V-49, XII-49, XIV-26, XIV-49, XV-26, XVI-26, XVII-26, XXIV-2, XXIV-46, XXIV-90, XXIV-93, XXIV-94, XXV-2, XXV-26, XXV-49 and XXV-68.
SMILES,control of Plutella xylostella [1],also measured
"O=C(Nc1ccc(F)cc1N1CCN(C/C=C/c2ccc(Cl)cc2)CC1)c1ccnc(Cl)c1 [Compound I-26, 2-chloro-N-(4-fluoro-2-{4-[(E)-3-(4-chloro-phenyl)-allyl]-piperazin-1-yl}-phenyl)-isonicotinamide]",at least 80%,
"O=C(Nc1ccc(F)cc1N1CCN(C/C=C/c2ccc(C(F)(F)F)cc2)CC1)c1ccnc(Cl)c1 [Compound I-29, 2-chloro-N-(4-fluoro-2-{4-[(E)-3-(4-trifluoromethyl-phenyl)-allyl]-piperazin-1-yl}-phenyl)-isonicotinamide]",at least 80%,
"O=C(Nc1ccc(F)cc1N1CCN(C/C=C/c2ccc(OC(F)(F)F)cc2)CC1)c1ccnc(Cl)c1 [Compound I-30, 2-chloro-N-(4-fluoro-2-{4-[(E)-3-(4-trifluoromethoxy-phenyl)-allyl]-piperazin-1-yl}-phenyl)-isonicotinamide]",at least 80%,
"O=C(Nc1ccc(Cl)cc1N1CCN(C/C=C/c2ccc(Cl)cc2)CC1)c1ccnc(Cl)c1 [Compound I-49, 2-chloro-N-(4-chloro-2-{4-[(E)-3-(4-chloro-phenyl)-allyl]-piperazin-1-yl}-phenyl)-isonicotinamide]",at least 80%,
O=C(Nc1cc(F)c(Cl)cc1N1CCN(C/C=C/c2ccc(Cl)cc2)CC1)c1ccnc(Cl)c1 [Compound I-417],at least 80%,
O=C(Nc1c(N2CCN(C/C=C/c3ccc(Cl)cc3)CC2)cc(F)c(F)c1F)c1ccnc(Cl)c1 [Compound I-532],at least 80%,
O=C(Nc1c(F)cc(F)c(F)c1N1CCN(C/C=C/c2ccc(Cl)cc2)CC1)c1ccnc(Cl)c1 [Compound I-578],at least 80%,
O=C(Nc1cc(F)c(F)cc1N1CCN(C/C=C/c2ccc(Cl)cc2)CC1)c1ccnc(Cl)c1 [Compound I-785],at least 80%,
O=C(Nc1cc(Cl)c(Cl)cc1N1CCN(C/C=C/c2ccc(Cl)cc2)CC1)c1ccnc(Cl)c1 [Compound I-854],at least 80%,
O=C(Nc1c(Cl)cc(Cl)cc1N1CCN(C/C=C/c2ccc(Cl)cc2)CC1)c1ccnc(Cl)c1 [Compound I-877],at least 80%,
O=C(Nc1ccc(Cl)cc1N1CCN(C/C=C/c2ccc(Cl)cc2)CC1)c1ccnc(F)c1 [Compound V-49],at least 80%,
O=C(Nc1ccc(Cl)cc1N1CCN(C/C=C/c2ccc(Cl)cc2)CC1)c1cc(Cl)nc(Cl)c1 [III-49],,control of Myzus persicae [2]: at least 80%; control of Spodoptera littoralis [3]: at least 80%; control of Aedes aegypti [4]: at least 80%; control of Heliothis virescens [5]: at least 80%
O=C(Nc1ccc(Cl)c(Cl)c1N1CCN(C/C=C/c2ccc(Cl)cc2)CC1)c1cc(Cl)nc(Cl)c1 [III-118],,control of Aedes aegypti [4]: at least 80%
CC(=O)Nc1ccc(Cl)cc1N1CCN(C/C=C/c2ccc(Cl)cc2)CC1 [IX-49],at least 80%,
COC(=O)Nc1ccc(Cl)cc1N1CCN(C/C=C/c2ccc(Cl)cc2)CC1 [XII-49],at least 80%,
COCCCNC(=O)Nc1ccc(F)cc1N1CCN(C/C=C/c2ccc(Cl)cc2)CC1 [XIV-26],at least 80%,control of Spodoptera littoralis [3]: at least 80%; control of Aedes aegypti [4]: at least 80%; control of Heliothis virescens [5]: at least 80%
O=C(NCc1cnc(Cl)s1)Nc1ccc(F)cc1N1CCN(C/C=C/c2ccc(Cl)cc2)CC1 [XV-26],at least 80%,control of Spodoptera littoralis [3]: at least 80%; control of Aedes aegypti [4]: at least 80%; control of Heliothis virescens [5]: at least 80%
"O=C(Nc1ccc(Cl)nc1N1CCN(C/C=C/c2ccc(Cl)cc2)CC1)c1ccnc(Cl)c1 [XXIV-46, 2-chloro-N-(6-chloro-2-{4-[(E)-3-(4-chloro-phenyl)-allyl]-piperazin-1-yl}-pyridin-3-yl)-isonicotinamide]",at least 80%,
"O=C(Nc1cc(Cl)cnc1N1CCN(C/C=C/c2ccc(Cl)cc2)CC1)c1ccnc(Cl)c1 [XXIV-90, 2-chloro-N-(5-chloro-2-{4-[(E)-3-(4-chloro-phenyl)-allyl]-piperazin-1-yl}-pyridin-3-yl)-isonicotinamide]",at least 80%,
CN(C(=O)c1ccnc(Cl)c1)c1ccc(F)cc1N1CCN(C/C=C/c2ccc(Cl)cc2)CC1 [XXV-26],at least 80%,
CN(C(=O)c1ccnc(Cl)c1)c1ccc(Cl)cc1N1CCN(C/C=C/c2ccncc2)CC1 [XXV-68],,control of Aedes aegypti [4]: at least 80%; control of Heliothis virescens [5]: at least 80%

# — patent US7807679B2, “Piperazine derivatives and their use in controlling pests” (Syngenta Crop Protection, Inc., priority 2004, dated 2010)
